Protein sequences can lack the tags named with them.
Target: T1, NF-κB p50 (rhNF-κB) (Homo sapiens) (UniProt P19838)
T1 sequence (looked up, limits assumed): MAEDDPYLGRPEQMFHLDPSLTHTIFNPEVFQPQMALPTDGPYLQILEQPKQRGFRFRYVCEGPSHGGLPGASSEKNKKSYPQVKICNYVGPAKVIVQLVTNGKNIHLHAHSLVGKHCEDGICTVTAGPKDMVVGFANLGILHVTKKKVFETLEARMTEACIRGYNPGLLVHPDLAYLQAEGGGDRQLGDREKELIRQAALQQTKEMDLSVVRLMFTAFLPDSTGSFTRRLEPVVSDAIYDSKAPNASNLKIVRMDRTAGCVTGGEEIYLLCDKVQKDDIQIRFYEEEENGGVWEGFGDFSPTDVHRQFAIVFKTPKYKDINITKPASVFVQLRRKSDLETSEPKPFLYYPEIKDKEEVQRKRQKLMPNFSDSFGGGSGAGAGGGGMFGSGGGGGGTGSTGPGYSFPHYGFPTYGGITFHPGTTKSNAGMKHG
Test: SPR
Details: printed as >>10-9; control aptamer; purified recombinant protein; protein details: Promega; single-stranded DNA

AAGACCAGACAATGTACAGTATTGGCCTGAAGGAGTGGACTGATACGATCGATTGACAG [Taq-59]
Kd: > 1 nM

Source: patent publication US20140194320, “METHOD FOR PREPARING NUCLEIC ACID APTAMER” (TAGCYX BITOECNOLOGIES, published 2014)
